# Test results from PMC12040169 (PLOS Biology, 2025).
# The other results are listed elsewhere or left out.
# System: T1, CTL2-GFP (C. trachomatis L2/434/Bu, GFP-expressing)
# T1 construct: L2/434/Bu, GFP-expressing
# Design: species or system HeLa; Intracellular C. trachomatis growth in HeLa cells, bulk GFP fluorescence relative to DMSO
# Settings: bulk GFP, single well; 28.5 h, 10 µM; inhibitor
row,Structure (SMILES),% of control remaining [%]
1,Cc1cccc(NC(=O)c2ccc3n[nH]c(=S)n3c2)c1 [CBK288389],135.628
2,Cc1cc2c(cc3c(=O)n(CC(=O)NC(C)(C)C)nc(C)n32)s1 [CBK284070],130.357
3,CCCS(=O)(=O)n1c(=O)n(CC(=O)c2ccc(N(CC)CC)cc2)c2ccccc21 [CBK106504],102.76
4,N/C(=N\OC(=O)COc1ccc2ccccc2c1)c1ccncc1 [CBK263737],104.673
5,CC(C)N(C(=O)N1CCC2(CC1)CC(=O)c1ccccc1O2)C(C)C [CBK284010],96.0367
6,O=C(CCC(=O)OCN1C(=O)c2ccccc2C1=O)Nc1ccc2ccccc2c1 [CBK265277],132.17
7,COc1ccccc1-c1nnc(NCc2ccc3c(c2)OCO3)nc1-c1ccccc1OC [CBK286284],100.458
8,O=C(Nc1ccc(Br)cc1)C1CCCN1S(=O)(=O)c1ccc(Cl)cc1 (centres unmarked) [CBK155481],112.857
9,O=C(C1CC1)N1CCC(c2nnc(-c3ccsc3)o2)CC1 [CBK283376],129.493
10,Cc1nn(-c2ccc(C(=O)O)cc2)c2c1C(=O)CC(C)(C)C2 [CBK286734],133.197
11,CSCCCNC(=O)N(CCc1ccccc1)Cc1ccccc1 [CBK155317],116.456
12,Nc1nc(OCCN2CCOCC2)cnc1-c1cc(Cl)cc(Cl)c1 [CBK145198],82.247
13,COc1ccc([C@@]23CC[C@@H](NC(=O)c4cccc(Cl)c4)C[C@@H]2N(C)CC3)cc1OC [CBK073982T],98.4929
14,Cc1nc(C)c(C(=O)N2CCCC(C(=O)c3ccc(F)cc3)C2)s1 (centres unmarked) [CBK305296],115.144
15,COCCC1CN(c2nc(N(C)C)nc3c2CCN(C(C)=O)C3)CCO1 (centres unmarked) [CBK307464],144.177
16,NCC(=O)Nc1ccc(Br)cc1C(=O)c1ccccc1Cl [CBK264692B],103.929
17,Cc1cccc2cc3c(nc12)OCC(=O)N(Cc1ccco1)C3 [CBK283816],87.9842
18,COc1ccc([C@@]23CC[C@@H](NC(=O)Nc4nc(Cl)cc(Cl)n4)C[C@@H]2N(C)CC3)cc1OC [CBK067083T],102.581
19,Cc1nn(C)c(Oc2ccccc2OCc2ccccc2)c1[N+](=O)[O-] [CBK000281],112.955
20,C[S+]([O-])CCNC(=O)c1cc(-c2cccs2)no1 (centres unmarked) [CBK282563],112.175
21,O=C(O)C1CCN(C(=O)[C@@H]2Cc3ccccc3CN2)CC1 [CBK286638],93.4726
22,O=C1NC(c2ccccc2)Cc2onc(-c3ccccc3)c21 (centres unmarked) [CBK004409],86.2186
23,Fc1ccccc1-c1cn2ccnc2c(NCCc2cccnc2)n1 [CBK037473],154.399
24,N#CCCCN1CCN(c2nccnc2OCc2ccc(Cl)c(Cl)c2)CC1 [CBK083086T],104.186
25,NS(=O)(=O)c1cccc(NC(=O)COc2ccc([N+](=O)[O-])cc2)c1 [CBK263624],108.36

row,Structure (SMILES),% of control remaining [%]
1,CN(C1=NS(=O)(=O)c2ccccc21)c1ccc(OC(=O)C2CC(=O)N(c3ccccc3)C2)cc1 (centres unmarked) [CBK263849],125.616
2,CS(=O)(=O)c1nnn(CC#N)n1 [CBK026075],104.539
3,Cc1cccc(C)c1OCCOCC(O)CN1CCN(C)CC1 (centres unmarked) [CBK278206C],117.983
4,COCCNC(=O)CN(C)c1cnc2ccccc2n1 [CBK305265],94.5457
5,Cc1ccc(S(=O)(=O)Nc2ccc(C3(c4ccc(NS(=O)(=O)c5ccc(C)cc5)cc4)c4ccccc4C(=O)c4ccccc43)cc2)cc1 [CBK261155],88.2822
6,CCOC(=O)CS(=O)(=O)Cc1cc(Cl)nc(Cl)c1 [CBK005544],103.78
7,COc1ccc(CNC(=O)C2CCCN(c3cnc4ccccc4n3)C2)cc1 (centres unmarked) [CBK287772],119.929
8,O=C(O)c1ccccc1C(=O)N1CCN(c2ccc([N+](=O)[O-])cc2)CC1 [CBK287181],111.61
9,COc1cc(-c2ccc3c(c2)COC2(CCCNC2)O3)cc(OC)c1OC (centres unmarked) [CBK092299],120.239
10,CCc1cc(Br)ccc1S(=O)(=O)NCc1cccc(F)c1 [CBK045114],112.647
11,c1ccc2c(CNCCN3CCOCC3)cccc2c1 [CBK278156C],145.077
12,O=C(Cc1ccccn1)N1CCCc2ccccc21 [CBK200343],103.573
13,O=C(CCc1ccccc1F)NC1CCc2nccn2C1 (centres unmarked) [CBK306124],116.337
14,Brc1ccc(-n2cc(-c3ccccc3)c3c(NCc4ccccn4)ncnc32)cc1 [CBK266427],169.532
15,COc1cnc(/C=C\c2ccccc2)c(NC(=O)c2cc(C)oc2C)n1 [CBK145222],87.0284
16,CCOc1ccc(CNc2sc3c(c2C(=O)Nc2ccc(OC)cc2)CCC3)cc1 [CBK294473],157.097
17,COc1cccc(-c2coc3cc4oc(=O)c(CC(=O)O)c(C)c4cc23)c1 [CBK269520],162.044
18,Cc1ccc(C(=O)NCC(=O)O)cc1S(=O)(=O)N1CCOCC1 [CBK264534],120.673
19,O=C(O)CCN1CCCC2(CCN(C(=O)c3ccoc3)C2)C1 (centres unmarked) [CBK137139],106.66
20,Cc1cc2cc(CNCCCN3CCCC3=O)c(=O)[nH]c2cc1C [CBK282296],126.073
21,Cc1ccc(S(=O)(=O)N(CC(=O)O)c2ccc(Cl)cc2)cc1 [CBK263767],96.6662
22,CCN(CC)C(=O)c1ccccc1NS(=O)(=O)c1cc(Br)ccc1OC [CBK045422],124.078
23,Cc1ccc(S(=O)(=O)Nc2cc(Sc3nc(C)cc(C)n3)c(O)c3ccccc23)cc1 [CBK263313],102.925
24,O=C(O)CNCc1ccc(-c2ccc(Cl)cc2)o1 [CBK287258],104.447
25,CCOCCNC(=O)c1coc(COc2ccc3sc(C)nc3c2)n1 [CBK306805],123.579

# Pulled by structure from above, two records:
row,Structure (SMILES),% of control remaining [%]
6,CCOC(=O)CS(=O)(=O)Cc1cc(Cl)nc(Cl)c1 [CBK005544],103.78
10,CCc1cc(Br)ccc1S(=O)(=O)NCc1cccc(F)c1 [CBK045114],112.647
